Measured values reported in patent US20200246381A1 (NANJING IASO BIOTHERAPEUTICS, published 2020).

T1: biotinylated BCMA protein (human, UniProt Q02223 1-54, biotinylated (site not stated))
T1 construct: Soluble labelled reagent, titrated from 295.86 nM to 3.79 pM and detected with PE streptavidin
T1 sequence (looked up): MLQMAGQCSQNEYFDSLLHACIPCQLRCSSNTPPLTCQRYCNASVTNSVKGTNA

B1: CAR0009 (other)
chain: DIVLTQSPPSLAMSLGKRATISCRASESVTILGSHLIHWYQQKPGQPPTLLIQLASNVQTGVPARFSGSGSRTDFTLTIDPVEEDDVAVYYCLQSRTIPRTFGGGTKLEIKGSTSGSGKPGSGEGSTKGQIQLVQSGPELKKPGETVKISCKASGYTFTDYSINWVKRAPGKGLKWMGWINTETREPAYAYDFRGRFAFSLETSASTAYLQINNLKYEDTATYFCALDYSYAMDYWGQGTSVTVSSFVPVFLPAKPTTTPAPRPPTPAPTIASQPLSLRPEACRPAAGGAVHTRGLDFACDIYIWAPLAGTCGVLLLSLVITLYCNHRNRSKRSRLLHSDYMNMTPRRPGPTRKHYQPYAPPRDFAAYRSRVKFSRSADAPAYQQGQNQLYNELNLGRREEYDVLDKRRGRDPEMGGKPRRKNPQEGLYNELQKDKMAEAYSEIGMKGERRRGKGHDGLYQGLSTATKDTYDALHMQALPPR
notes: Control chimeric antigen receptor on the surface of 293T or T cells; no HA-tag and no GFP; also called PXLV0009; PXL0009
B2: CAR0041 (other)
chain: YPYDVPDYADIVLTQSPPSLAMSLGKRATISCRASESVTILGSHLIHWYQQKPGQPPTLLIQLASNVQTGVPARFSGSGSRTDFTLTIDPVEEDDVAVYYCLQSRTIPRTFGGGTKLEIKGSTSGSGKPGSGEGSTKGQIQLVQSGPELKKPGETVKISCKASGYTFTDYSINWVKRAPGKGLKWMGWINTETREPAYAYDFRGRFAFSLETSASTAYLQINNLKYEDTATYFCALDYSYAMDYWGQGTSVTVSSFVPVFLPAKPTTTPAPRPPTPAPTIASQPLSLRPEACRPAAGGAVHTRGLDFACDIYIWAPLAGTCGVLLLSLVITLYCNHRNRSKRSRLLHSDYMNMTPRRPGPTRKHYQPYAPPRDFAAYRSRVKFSRSADAPAYQQGQNQLYNELNLGRREEYDVLDKRRGRDPEMGGKPRRKNPQEGLYNELQKDKMAEAYSEIGMKGERRRGKGHDGLYQGLSTATKDTYDALHMQALPPR
notes: Control chimeric antigen receptor on the surface of 293T or T cells, co-expressed with GFP through a T2A cleaving peptide; The CD8a signal peptide is left out; T2A residues that stay at the C-terminus after cleaving are not included; also called PXL0041; PXL0041-293T

Biological target: T1, biotinylated BCMA protein
Test: flow cytometry on transiently transfected 293T cells carrying the CAR; biotinylated BCMA titrated 295.86 nM to 3.79 pM, PE streptavidin, curve fitting
Procedure: The expressions of the CAR molecules were evaluated by utilizing the methods in example 1. Specifically, the dose of the biotinylated BCMA was changed by the gradient dilution for protein concentration in the presence of excessive PE streptavidin with a fixed concentration, so that the change of PE signals as shown in FIG. 2B was obtained. X axis represented GFP protein signals expressed in the cells, and Y axis represented PE signals obtained by the CAR molecules marked using the gradiently-diluted biotinylated BCMA and the fixed amount of PE streptavidin.
The gradiently-diluted biotinylated BCMA protein (295.86 nM to 3.79 pM) was used to assay the 293T cells transiently transfected with the candidate CAR plasmids, so that a PE signal change curve (as shown in FIG. 3) was obtained. EC₅₀ values for the binding of BCMA proteins with CAR molecules on the surfaces of cells as measured by curve fitting, were as shown in Table 2.

| Binder | EC50 [nM] |
| --- | --- |
| B1 | 1.59 |
| B2 | 0.3 |
